Data as given in PubChem BioAssay AID1259254 (NCATS, 2017)

Assay: 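Finding genes that stop cells copying their DNA twice in one cycle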 (primary screen)
Cell system: human HCT116 colorectal cancer cells
Reagents: single siRNA against human genes
Duration: 3 days
Read-out: 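Imaged Hoechst DNA stain sorts each cell into a cycle phase by DNA amount; per plate, G2 fraction set to 0% for non-targeting and 100% for GMNN siRNA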
Reading the numbers: G2 robust z-score and G2 cells, % of GMNN control: higher = more G2 cells, more excess DNA replication; raw share of cells in G2: higher = larger share of cells with G2 DNA content
Hit rule: 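An siRNA counts as active if its G2 robust z-score lies at least 5 MADs above the screen median; here such calls match roughly 38% of GMNN control or more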
The whole screen tested about 59,000 reagents; this is a part drawn at random. About 1,550 of all reagents (2.6%) count as active. 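G2 share is only a proxy for re-replication; each gene was hit by three separate siRNAs, and active genes were retested.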 Raw values vary from plate to plate and are shown uncorrected. Not stated in the record: the amount of reagent.

no.	Target gene	PubChem SID	G2 robust z-score	G2 cells, % of GMNN control	raw share of cells in G2 (%)	call
1	TMEM37	SID160757879	-0.476	-0.382	4.03	inactive
2	TMEM37	SID160757880	0.313	5.17	4.74	inactive
3	TMEM37	SID160757881	0.46	6.2	4.83	inactive
4	SNU13	SID160733461	0.271	4.88	5.12	inactive
5	SNU13	SID160778063	5.97	45	24.1	active
6	SNU13	SID160778064	0.55	6.84	6.92	inactive
7	NDUFB4	SID160731279	1.16	11.1	6.87	inactive
8	NDUFB4	SID160777868	-0.816	-2.77	4.37	inactive
9	NDUFB4	SID160777870	-0.228	1.37	5.89	inactive
10	EGR4	SID160758992	-0.552	-0.914	4.91	inactive
11	EGR4	SID160759003	-0.885	-3.26	4.02	inactive
12	EGR4	SID160759013	-0.384	0.264	3.75	inactive
13	FRG1JP	SID160768550	-0.598	-1.24	3.14	inactive
14	FRG1JP	SID160768551	-0.452	-0.211	3.34	inactive
15	FRG1JP	SID160768552	0.86	9.02	6.19	inactive
16	SLIT2	SID160722011	-0.365	0.398	5.4	inactive
17	SLIT2	SID160722012	-0.382	0.282	4.67	inactive
18	SLIT2	SID160722013	-1.17	-5.25	2.83	inactive
19	PHC1P1	SID160771000	-0.328	0.663	3.61	inactive
20	PHC1P1	SID160771001	4.22	32.6	15.2	inactive
21	PHC1P1	SID160771002	-0.207	1.51	3.23	inactive
22	RILPL2	SID160760598	0.584	7.08	6.14	inactive
23	RILPL2	SID160760599	-0.586	-1.16	2.57	inactive
24	RILPL2	SID160760600	-0.0591	2.55	3.57	inactive
25	HVCN1	SID160752171	0.4	5.78	6.03	inactive
26	HVCN1	SID160752173	0.201	4.38	4.76	inactive
27	HVCN1	SID160752174	-0.705	-1.99	1.8	inactive
28	ARSA	SID160723662	-0.699	-1.95	3.26	inactive
29	ARSA	SID160723663	3.8	29.7	15.6	inactive
30	ARSA	SID160731214	1.46	13.2	9.22	inactive
31	PRSS53	SID160764146	-0.0424	2.67	4.9	inactive
32	PRSS53	SID160764148	-0.784	-2.55	2.14	inactive
33	PRSS53	SID160764149	-1.27	-5.96	1.79	inactive
34	DGKA	SID160752366	0.127	3.86	6.88	inactive
35	DGKA	SID160752376	-1.39	-6.82	3.11	inactive
36	DGKA	SID160752387	-1.61	-8.36	1.08	inactive
37	RASA2	SID160715692	-0.669	-1.74	4.38	inactive
38	RASA2	SID160715693	1.45	13.1	9.7	inactive
39	RASA2	SID160715694	-0.424	-0.0159	4.14	inactive
40	C14orf119	SID160742758	-0.516	-0.666	4.27	inactive
41	C14orf119	SID160742759	2.17	18.2	11.7	inactive
42	C14orf119	SID160742760	1.08	10.6	6.52	inactive

The list goes on; the last 7 above are carried over.
no.	Target gene	PubChem SID	G2 robust z-score	G2 cells, % of GMNN control	raw share of cells in G2 (%)	call
36	DGKA	SID160752387	-1.61	-8.36	1.08	inactive
37	RASA2	SID160715692	-0.669	-1.74	4.38	inactive
38	RASA2	SID160715693	1.45	13.1	9.7	inactive
39	RASA2	SID160715694	-0.424	-0.0159	4.14	inactive
40	C14orf119	SID160742758	-0.516	-0.666	4.27	inactive
41	C14orf119	SID160742759	2.17	18.2	11.7	inactive
42	C14orf119	SID160742760	1.08	10.6	6.52	inactive
43	OR6C65	SID160767496	2.53	20.8	11.4	inactive
44	OR6C65	SID160767497	-0.681	-1.82	2.79	inactive
45	OR6C65	SID160767498	-0.474	-0.368	4.64	inactive
46	SLC45A4	SID160745820	0.0744	3.49	5.72	inactive
47	SLC45A4	SID160745821	-1.19	-5.41	1.87	inactive
48	SLC45A4	SID160745822	1.5	13.5	7.32	inactive
49	LRIG3	SID160730570	-0.903	-3.38	3.2	inactive
50	LRIG3	SID160755866	1.03	10.2	9.34	inactive
51	LRIG3	SID160755867	-0.837	-2.92	4.31	inactive
52	CD40LG	SID160739377	-0.462	-0.286	5.17	inactive
53	CD40LG	SID160739387	-0.799	-2.65	3.12	inactive
54	CD40LG	SID160739398	0.153	4.04	5.11	inactive
55	PNPLA1	SID160763729	0.0815	3.54	7.43	inactive
56	PNPLA1	SID160763730	-1.15	-5.16	2.95	inactive
57	PNPLA1	SID160763731	-1.64	-8.61	1.14	inactive
58	H2AZ2P1	SID160765783	-0.958	-3.78	2.48	inactive
59	H2AZ2P1	SID160765784	3.85	30.1	16.5	inactive
60	H2AZ2P1	SID160765785	2.15	18.1	12.4	inactive
61	PLXNB3	SID160714521	2.05	17.4	11.3	inactive
62	PLXNB3	SID160714522	-0.755	-2.34	4.62	inactive
63	PLXNB3	SID160714523	0.917	9.42	7.35	inactive
64	WNT5B	SID160731960	-0.605	-1.29	3.73	inactive
65	WNT5B	SID160750662	-0.583	-1.14	4.96	inactive
66	WNT5B	SID160750663	1.81	15.7	10.6	inactive
67	SLC19A4P	SID160733649	-0.547	-0.878	2.75	inactive
68	SLC19A4P	SID160745295	1.86	16	10.7	inactive
69	SLC19A4P	SID160745296	0.267	4.85	6.78	inactive
